Assay results from doi:10.1101/2022.11.16.516846.
These are yes or no findings as the source states them, for the method shown. In cells and extracts the contact can be indirect. Some binding calls cover weakened binding; strength is not graded here. Tags and fused reporters may be left off the sequences shown.

By UniProt entry, the sequences of proteins in these tests, tags left out.
UniProt Q7JW27: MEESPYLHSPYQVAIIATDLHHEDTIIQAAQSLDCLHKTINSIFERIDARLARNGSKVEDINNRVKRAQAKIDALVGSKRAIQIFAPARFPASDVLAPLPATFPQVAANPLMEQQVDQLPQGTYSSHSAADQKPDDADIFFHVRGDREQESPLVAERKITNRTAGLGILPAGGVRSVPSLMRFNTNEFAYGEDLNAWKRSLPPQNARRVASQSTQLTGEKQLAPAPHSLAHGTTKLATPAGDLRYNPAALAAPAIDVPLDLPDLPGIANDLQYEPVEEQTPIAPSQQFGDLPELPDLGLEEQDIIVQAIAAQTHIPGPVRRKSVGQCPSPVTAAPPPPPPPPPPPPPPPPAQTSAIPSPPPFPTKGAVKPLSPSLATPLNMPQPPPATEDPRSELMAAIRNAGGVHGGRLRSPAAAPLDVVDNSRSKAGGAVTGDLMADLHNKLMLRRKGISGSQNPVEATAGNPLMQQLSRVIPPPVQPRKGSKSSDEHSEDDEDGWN

Biological target: GST-Wash full length (Drosophila) (UniProt Q7JW27)
Test: pull-down

binding: binds
B1: CCDC53 (GST pulldown with Wash) (protein, UniProt Q9VLT8 1-176)
chain: MDATAAITGNVDKTQIPPLNQKRILAFVNHFLVSTCTFLNEFALGCETKFVEMERQLQKTEAALIILEAKLASIPTEHHVATEATEAPAISNQQRNEEASMVDTTEPPTTENPTEPELPPESVGVRACEDQRYRKFFKMVQVGVPAPAVKQKMQSEGLEPRILDTPDLILADGQRE
